Patent US20200390793A1, “COMPOSITIONS AND METHODS USING OLEUROPEIN OR CURCUMIN FOR MUSCLE QUALITY AND/OR MUSCLE MASS” (SOCIETE DES PRODUITS NESTLE S.A., priority 2017, published 2020)
At least one structure is not confirmed: it was looked up by name or label, or the drawing left a doubt.

Tested on: old rats
Assay: Dietary polyphenol supplementation for 3 months in 20 months-old rats: muscle mass and muscle fiber area (immunofluorescence staining and microscopy)
Format: in vivo
Conditions: supplemented diet for 3 months
Source text: 20 months-old rats were fed either a control diet or the same diet supplemented with curcumin or rutin or oleuropein for 3 months. CON=control diet, RUT=control diet with rutin, OLE=control diet with oleuropein and CUR=control diet with curcumin. Old rats are a good model to assess the effect of nutritional intervention in age related muscle decline. With this model, it can be observed as in human a decrease in muscle mass and function and a change in muscle quality with age. The objective of the study was to determine the effects of curcumin, oleuropein and rutin on muscle quality in old rats and the association with muscle mass. 20 months-old rats have been divided in four groups and received a complete diet supplemented with either curcumin (CUR), oleuropein (OLE) or rutin (RUT) for 3 months. A control group (CON) received cellulose instead of polyphenols. Fiber type was analyzed in muscle by immunofluorescence staining and microscopy. Exact Wilcoxon test associated with Hodges-Lehmann to estimate the difference between groups and Kolmogorov-Smirnov test to assess the difference for the distribution have been performed for statistical analysis.

[1] = compared with control and rutin groups

SMILES	amount of small fibers area (percentage of cells with an area below 700 μm^2, FIG. 3B) [1]	fiber crossectionnal area (FIG. 3A) [1]	muscle mass [1]	influence on the quality of the muscle
C/C=C1/[C@H](O[C@@H]2O[C@H](CO)[C@@H](O)[C@H](O)[C@H]2O)OC=C(C(=O)OC)[C@H]1CC(=O)OCCc1ccc(O)c(O)c1 [OLE, oleuropein]	lower	higher	higher	
C[C@@H]1O[C@@H](OC[C@H]2O[C@@H](Oc3c(-c4ccc(O)c(O)c4)oc4cc(O)cc(O)c4c3=O)[C@H](O)[C@@H](O)[C@@H]2O)[C@H](O)[C@H](O)[C@H]1O [Rutin, rutin, reference compound]				did not show this effect
